# Values quoted from earlier work, collected in US20240239796A1, “CRYSTALLINE POLYMORPHS OF EPIDERMAL GROWTH FACTOR RECEPTOR INHIBITOR, AND COMPOSITIONS AND METHODS THEREOF” (Crimson BioPharm Inc., priority 2022, published 2024).
# For at least one compound, name, drawing or mass did not settle the structure.
# Tested on: NSCLC that have developed resistance to gefitinib or erlotinib
# Conditions: patients with NSCLC that have developed resistance to gefitinib or erlotinib; cited from earlier work
structure (smiles),measurement,value
CN(C)C/C=C/C(=O)Nc1cc2c(Nc3ccc(F)c(Cl)c3)ncnc2cc1O[C@H]1CCOC1 [afatinib],RR (response rate),< 10%
